# Data as given in PubChem BioAssay AID493014 (National Center for Advancing Translational Sciences (NCATS), 2011).
# About 170 (0.05%) of roughly 340,000 compounds were called active. The inconclusive results got no clear call from the source; some entries with a clear call stand among them for comparison. Calls follow the shape of the dose curve; as a rule, active = well fitted inhibition curve with a large enough effect in the signal ratio, with a control signal flat (not every such curve was filed as active); inconclusive = small, poorly fitted or top-dose-only effect, or effect the other way, or a change in a side signal; inactive = flat fitted curve, though single readings scatter; the % refers to the signal ratio. Where the call is inconclusive, the potency comes from a doubtful curve fit.
# Assay: qHTS Assay to Find Inhibitors of Chronic Active B-Cell Receptor Signaling;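 as to activity change, negative = inhibition: plate controls were basal doxycycline-induced cells for no effect and cells given 10 µM MG132 for full effect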
# Conditions: ABC-DLBCL IkBa-CBG/CBR reporter, luminescence ratio (green luciferase fused to IkBa over red control in TMD8 lymphoma cells), 4 h; activity change, negative = inhibition: at 46.1 µM (top of the series) unless noted
# Method in brief: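 Doxycycline induced both beetle luciferases in TMD8 lymphoma cells; IKK-driven degradation limits the IkappaBalpha-fused green signal, while red luminescence normalises for cell number and nonspecific effects. Compounds tested up to 46 uM, 4 hrs.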
# Potency is read from the fitted curve at half-maximal effect.
SMILES,"activity change, negative = inhibition",Potency
Cc1cc(NC(=O)c2cc(C3CC3)on2)no1,inactive,
CCCc1cc(=O)[nH]c(Nc2cc(OC)ccc2OC)n1,inactive,
CN1CCC(=C2c3ccccc3C=Cc3ccccc32)CC1,inconclusive: -19%,
CC1Cc2cc(S(=O)(=O)NCc3ccc(F)cc3)ccc2N1C(=O)C1CCC1 (stereo unspecified),inactive,
COc1ccc2ccccc2c1C(=O)/C=C\c1ccoc1,inactive,
CC(=O)Oc1ccc(-c2ccc(C(=O)O)cc2)cc1,inconclusive: 0.831%,
O=C(NCCc1ccc(Cl)cc1)c1cnc2n(c1=O)CCS2,inactive,
COc1ccccc1NC(=O)C1CCN(S(=O)(=O)c2cccs2)CC1,inactive,
COc1cc(NC(=O)c2cc(OC)c(OC)c(OC)c2)ccc1NC(=O)c1cccs1,inconclusive: 2.2%,
COc1ccc(Cn2c(SCC#N)nc3ccc(N4CCOCC4)cc3c2=O)cc1,,"inconclusive: 4.47 µM [falling, partial curve, poor fit]"
Cc1[nH]nc2c1C(c1ccc(F)cc1)C(C#N)=C(N)O2 (stereo unspecified),,"inconclusive: 15.8 µM [falling, partial curve, poor fit]"
CC(C)(C)C(=O)COC(=O)c1cc2ccccc2cc1O,inconclusive: -1.55%,
Cc1cc2oc(=O)cc(-c3ccccc3)c2c(C)c1-c1ccc(C#N)cc1,inactive,
COc1ccc(-n2c(-c3ccc(Br)cc3)n[nH]c2=S)cc1,inactive,
Cc1ccccc1C(=O)N(CC(=O)Nc1sc(C)c(C)c1C(N)=O)C1CCCC1,inconclusive: 10.3%,
Cc1ccc(C(=O)Nc2ccc3c(c2)N(C)C(=O)c2ccccc2S3)cc1F,,"inconclusive: 12.6 µM [falling, partial curve]"
Cn1c(NC(=O)c2ccc(Br)o2)cc(=O)n(C)c1=O,inconclusive: -0.838%,
O=S(=O)(c1ccccc1)N1CCN(c2nc3ccccc3s2)CC1,inconclusive: 7.45%,
CC(=O)c1sc(-c2ccccc2)nc1C,inconclusive: 10.2%,

SMILES,"activity change, negative = inhibition",Potency
Cc1ccc(C(c2sc3nc(-c4ccco4)nn3c2O)N2CCCCC2)cc1 (stereo unspecified),inactive,
COC(=O)/C(C#N)=C(/Nc1ccc(F)c(Cl)c1)C(F)(F)F,inconclusive: 5.34%,
O=C(CCS(=O)(=O)c1ccc(Br)cc1)NCc1ccc(F)cc1,inactive,
OC1CCCN(c2c3c(nc4cc(-c5cccc(F)c5)nn24)CCCC3)C1 (stereo unspecified),inconclusive: -3.23%,
C(=N\Nc1ncnc2nc[nH]c12)/c1cccs1,,"inconclusive: 31.6 µM [falling, partial curve, poor fit]"
COc1ccc(F)cc1Cn1nc(C(=O)O)c2ccccc2c1=O,,"inconclusive: 17.8 µM [falling, partial curve, poor fit]"
O=C(Nc1ccc(F)cc1)C(=O)C1C(=O)Nc2ccccc21 (stereo unspecified),,"inconclusive: 35.5 µM [rising, partial curve]"
COc1cnn(-c2ccc(F)cc2)c(=O)c1Br,inactive,
COc1ccccc1N1CCN(C(=O)C2c3ccccc3Oc3ccccc32)CC1,,"inconclusive: 11.2 µM [falling, partial curve]"
Cc1ccc2c(CC(=O)NCC3(N4CCOCC4)CCCCC3)coc2c1C,inconclusive: -4.15%,
COC(=O)c1ccc(Cl)c(NC(=O)CSc2nnc(-c3ccncc3)o2)c1,inconclusive: -14.7%,
NS(=O)(=O)c1ccc(N=Nc2ccc(O)c3ncccc23)cc1,inconclusive: 8.88%,
Cc1ccc(O)c(Sc2cc(C)ccc2O)c1,inactive,
O=C(CCc1ccccc1)Nc1nc2n(n1)C(c1ccccc1)CC(=O)N2 (stereo unspecified),inconclusive: 3.97%,
COc1ccccc1/C=N/NC(=O)c1cccc(NC(=O)c2ccccc2Cl)c1,,"inconclusive: 12.6 µM [falling, partial curve, poor fit]"
COc1ccc(C2NC3=C(CCC3)C3(C#N)C4(N=C(N)C23C#N)OCCO4)cc1 (stereo unspecified),inconclusive: 9.12%,
Cc1ccc(C2NC(c3ccc(C)cc3)C(C)C(=O)C2C)cc1 (stereo unspecified),inconclusive: 10.3%,
CCn1c(SCc2ccccc2Cl)nc2nc3c(cc2c1=O)CCCC3,inactive,
O=C(c1ccco1)N1CCN(c2cccc(Cl)c2)CC1,inconclusive: 13.1%,

# Quoted from the entries so far for reference:
SMILES,"activity change, negative = inhibition",Potency
Cc1ccc(C(c2sc3nc(-c4ccco4)nn3c2O)N2CCCCC2)cc1 (stereo unspecified),inactive,
COC(=O)/C(C#N)=C(/Nc1ccc(F)c(Cl)c1)C(F)(F)F,inconclusive: 5.34%,
O=C(CCS(=O)(=O)c1ccc(Br)cc1)NCc1ccc(F)cc1,inactive,
OC1CCCN(c2c3c(nc4cc(-c5cccc(F)c5)nn24)CCCC3)C1 (stereo unspecified),inconclusive: -3.23%,
C(=N\Nc1ncnc2nc[nH]c12)/c1cccs1,,"inconclusive: 31.6 µM [falling, partial curve, poor fit]"
COc1ccc(F)cc1Cn1nc(C(=O)O)c2ccccc2c1=O,,"inconclusive: 17.8 µM [falling, partial curve, poor fit]"
O=C(Nc1ccc(F)cc1)C(=O)C1C(=O)Nc2ccccc21 (stereo unspecified),,"inconclusive: 35.5 µM [rising, partial curve]"
COc1cnn(-c2ccc(F)cc2)c(=O)c1Br,inactive,
COc1ccccc1N1CCN(C(=O)C2c3ccccc3Oc3ccccc32)CC1,,"inconclusive: 11.2 µM [falling, partial curve]"
Cc1ccc2c(CC(=O)NCC3(N4CCOCC4)CCCCC3)coc2c1C,inconclusive: -4.15%,
COC(=O)c1ccc(Cl)c(NC(=O)CSc2nnc(-c3ccncc3)o2)c1,inconclusive: -14.7%,

# Going on with the list:

SMILES,"activity change, negative = inhibition",Potency
O=C(NCC1CCN(Cc2cccc(Cl)c2)CC1)Nc1ccc(Cl)cc1,inconclusive: 2.41%,
Cc1ccnc(NS(=O)(=O)c2ccc(NC(=O)c3oc4ccccc4c3C)cc2)n1,inconclusive: 7.49%,
CCCn1c(CCC(=O)Nc2ccccc2Cc2ccccc2)nc2cc(S(=O)(=O)N3CCOCC3)ccc21,inconclusive: 13.7%,
COc1cccc(CNC(=O)Nc2cccs2)c1,inconclusive: -9.63%,
COC(=O)c1ccccc1NC(=O)/C=C/C(=O)O,inconclusive: 1.64%,
COc1ccc(S(=O)(=O)NCc2ccc3c(c2)OCO3)cc1C(=O)O,inactive,
COc1ccccc1NC(=O)C(C)OC(=O)c1nc2nc(C)cc(C)n2n1 (stereo unspecified),inconclusive: 8.29%,
Cc1ccc2nc(SCC(=O)Nc3cccc4ccccc34)nc(=O)n2c1,inconclusive: -20.1%,
C[C@H](NC(=O)N1CCn2c1nc1ccccc12)C(=O)NCc1ccc2c(c1)OCO2,inconclusive: -17.4%,
COc1ccccc1C(=O)NC(=O)OCCn1c(C)cnc1[N+](=O)[O-],inactive,
O=C(/C=C/c1ccccc1)NCCC1=CCCCC1,inconclusive: -20.2%,
C=CCNCC#CCOc1ccc(OC)cc1,inconclusive: -5.58%,
Cc1ccc(-c2nc(N)c3c(-c4ccc(C)cc4)nn(C(C)(C)C)c3n2)cc1,inactive,
O=C(Cn1nnc(-c2ccccc2NC(=O)c2ccco2)n1)Nc1ccccc1,,"inconclusive: 18.4 µM [falling, single point]"
Cn1cc(CN(CCO)Cc2cccs2)c(-c2cccc(Cl)c2)n1,,"inconclusive: 15.8 µM [rising, partial curve]"
CN(Cc1ccccc1F)c1ncnc2sccc12,inconclusive: -27%,
CCC(=O)Nc1cccc(NC(=O)c2ccc(Br)cc2)c1,inconclusive: 4.92%,
CCc1nnc(NS(=O)(=O)c2ccc(NC(=O)COc3ccc(Cl)c(C)c3)cc2)s1,inactive,
